{"source": "patent US20190216815A1", "about": "“COMBINATION THERAPY COMPRISING A POLYUNSATURATED KETONE AND A FOLIC ACID PARTNER” (Avexxin AS, priority 2016, published 2019)", "tested_on": "LPS-induced PGE2 in PBMC", "experiment": "LPS-induced PGE2 production in PBMC (EIA)", "assay_type": "cell-based", "conditions": "1 μM MTX alone, 72 hours, 10 ng/mL LPS", "note": "Some results were stated once for a whole list of compounds, not compound by compound.", "data": [{"smiles": "CN(Cc1cnc2nc(N)nc(N)c2n1)c1ccc(C(=O)N[C@@H](CCC(=O)O)C(=O)O)cc1", "note": "[MTX, methotrexate hydrate]", "values": [{"measurement": "reduction of LPS-induced PGE2 in PBMC", "value": "35-40%"}]}]}
